Measurements taken from article PMC7086158.
No constants are given. Whether binding was seen depends on the method and setting. Binding seen in cells or lysates may run through a third protein. Some entries that bind do so weakly or less than the wild type. For part of these data: Where a sequence is shown, tags or fusion partners need not be part of it. One block for each molecule: values may come before it.

The chains behind the UniProt entries cited, without tags or fusion partners.
UniProt P62140: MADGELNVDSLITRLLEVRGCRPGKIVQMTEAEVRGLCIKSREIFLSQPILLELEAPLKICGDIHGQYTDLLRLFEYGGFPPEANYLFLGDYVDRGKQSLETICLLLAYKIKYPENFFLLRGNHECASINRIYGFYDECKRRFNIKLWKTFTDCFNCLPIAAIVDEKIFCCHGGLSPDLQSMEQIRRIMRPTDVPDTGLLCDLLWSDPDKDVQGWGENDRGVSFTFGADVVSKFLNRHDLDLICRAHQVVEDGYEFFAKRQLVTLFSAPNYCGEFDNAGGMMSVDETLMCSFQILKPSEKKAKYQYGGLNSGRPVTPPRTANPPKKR
UniProt O75533: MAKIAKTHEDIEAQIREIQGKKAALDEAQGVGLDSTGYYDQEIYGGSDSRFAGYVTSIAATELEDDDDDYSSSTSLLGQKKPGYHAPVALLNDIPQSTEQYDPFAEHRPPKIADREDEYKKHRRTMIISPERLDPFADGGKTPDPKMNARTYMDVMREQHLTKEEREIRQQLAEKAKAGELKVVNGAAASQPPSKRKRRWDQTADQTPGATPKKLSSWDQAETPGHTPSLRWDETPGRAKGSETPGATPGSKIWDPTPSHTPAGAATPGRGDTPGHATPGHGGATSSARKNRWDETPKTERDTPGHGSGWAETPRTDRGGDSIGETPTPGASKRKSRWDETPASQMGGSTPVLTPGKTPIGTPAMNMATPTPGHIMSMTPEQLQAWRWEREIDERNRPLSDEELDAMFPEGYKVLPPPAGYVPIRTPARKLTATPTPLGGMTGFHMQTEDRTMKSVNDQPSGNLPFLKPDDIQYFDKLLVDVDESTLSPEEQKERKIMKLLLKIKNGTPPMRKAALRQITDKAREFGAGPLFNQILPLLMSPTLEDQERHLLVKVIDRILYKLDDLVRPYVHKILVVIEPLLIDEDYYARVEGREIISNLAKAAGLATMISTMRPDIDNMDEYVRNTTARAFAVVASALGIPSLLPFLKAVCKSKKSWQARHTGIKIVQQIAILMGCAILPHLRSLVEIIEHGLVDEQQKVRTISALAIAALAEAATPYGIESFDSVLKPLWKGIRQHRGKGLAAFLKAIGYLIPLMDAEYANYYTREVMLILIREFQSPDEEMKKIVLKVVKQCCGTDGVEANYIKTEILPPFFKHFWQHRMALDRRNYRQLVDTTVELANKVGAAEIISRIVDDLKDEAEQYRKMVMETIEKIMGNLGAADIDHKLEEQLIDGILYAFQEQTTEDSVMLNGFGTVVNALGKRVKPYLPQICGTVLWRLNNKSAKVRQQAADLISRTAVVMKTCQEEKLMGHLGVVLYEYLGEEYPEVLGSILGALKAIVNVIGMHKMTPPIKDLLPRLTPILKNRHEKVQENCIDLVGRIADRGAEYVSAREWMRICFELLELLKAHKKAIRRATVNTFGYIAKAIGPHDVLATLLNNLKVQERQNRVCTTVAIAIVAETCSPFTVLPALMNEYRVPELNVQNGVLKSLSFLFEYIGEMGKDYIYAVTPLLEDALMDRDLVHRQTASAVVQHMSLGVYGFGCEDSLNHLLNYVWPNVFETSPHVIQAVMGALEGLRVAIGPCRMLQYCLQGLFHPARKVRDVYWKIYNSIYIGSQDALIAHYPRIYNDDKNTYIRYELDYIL

Tests used:
[1] = target: T1, NUAK1 (endogenous in U2OS cells) (human (endogenous in U2OS)) (UniProt O60285); assay: proximity ligation; Duolink In Situ PLA in fixed U2OS cells (Figure 1I)
T1 sequence: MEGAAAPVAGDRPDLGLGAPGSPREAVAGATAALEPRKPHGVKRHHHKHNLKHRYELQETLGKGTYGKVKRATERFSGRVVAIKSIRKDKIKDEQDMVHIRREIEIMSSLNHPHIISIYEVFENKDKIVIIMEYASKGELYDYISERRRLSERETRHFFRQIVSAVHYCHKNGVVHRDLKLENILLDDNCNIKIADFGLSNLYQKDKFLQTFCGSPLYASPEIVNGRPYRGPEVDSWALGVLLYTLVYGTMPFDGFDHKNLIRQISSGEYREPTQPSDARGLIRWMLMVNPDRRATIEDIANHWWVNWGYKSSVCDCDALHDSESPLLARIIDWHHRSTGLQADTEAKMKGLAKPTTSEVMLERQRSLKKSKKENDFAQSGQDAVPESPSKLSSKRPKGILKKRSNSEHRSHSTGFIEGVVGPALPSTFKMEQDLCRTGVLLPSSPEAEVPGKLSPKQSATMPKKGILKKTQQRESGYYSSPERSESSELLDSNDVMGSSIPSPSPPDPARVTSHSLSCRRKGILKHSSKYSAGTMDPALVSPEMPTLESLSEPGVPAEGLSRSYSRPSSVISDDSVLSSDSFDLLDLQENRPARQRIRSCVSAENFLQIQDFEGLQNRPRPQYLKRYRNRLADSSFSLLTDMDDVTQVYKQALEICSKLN

[2] = target: T2, C-terminally FLAG-tagged murine Nuak1 (mouse) (UniProt Q641K5); assay: co-IP; anti-FLAG immunoprecipitation from lysates of U2OS cells stably expressing N- or C-terminally FLAG-tagged NUAK1, immunoblot (Figure S1C)
T2 sequence: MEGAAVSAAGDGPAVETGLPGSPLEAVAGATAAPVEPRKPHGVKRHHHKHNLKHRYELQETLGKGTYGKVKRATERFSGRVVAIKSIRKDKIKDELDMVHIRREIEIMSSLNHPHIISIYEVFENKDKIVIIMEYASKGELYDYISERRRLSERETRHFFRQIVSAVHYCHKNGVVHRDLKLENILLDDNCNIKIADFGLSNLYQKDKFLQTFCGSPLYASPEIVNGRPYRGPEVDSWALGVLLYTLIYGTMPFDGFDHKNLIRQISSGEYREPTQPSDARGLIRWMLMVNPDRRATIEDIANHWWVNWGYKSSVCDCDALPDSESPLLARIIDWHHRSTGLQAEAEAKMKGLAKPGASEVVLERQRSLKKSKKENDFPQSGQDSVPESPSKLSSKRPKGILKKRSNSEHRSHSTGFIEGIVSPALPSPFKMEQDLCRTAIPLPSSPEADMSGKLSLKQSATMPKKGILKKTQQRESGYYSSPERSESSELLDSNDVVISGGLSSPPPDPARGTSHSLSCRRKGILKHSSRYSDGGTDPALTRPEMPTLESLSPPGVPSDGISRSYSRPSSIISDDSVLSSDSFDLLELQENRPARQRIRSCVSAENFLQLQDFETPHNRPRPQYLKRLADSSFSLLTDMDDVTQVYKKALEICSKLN

[3] = target: T3, N-terminally FLAG-tagged murine Nuak1 (mouse) (UniProt Q641K5); assay: as above
T3 sequence: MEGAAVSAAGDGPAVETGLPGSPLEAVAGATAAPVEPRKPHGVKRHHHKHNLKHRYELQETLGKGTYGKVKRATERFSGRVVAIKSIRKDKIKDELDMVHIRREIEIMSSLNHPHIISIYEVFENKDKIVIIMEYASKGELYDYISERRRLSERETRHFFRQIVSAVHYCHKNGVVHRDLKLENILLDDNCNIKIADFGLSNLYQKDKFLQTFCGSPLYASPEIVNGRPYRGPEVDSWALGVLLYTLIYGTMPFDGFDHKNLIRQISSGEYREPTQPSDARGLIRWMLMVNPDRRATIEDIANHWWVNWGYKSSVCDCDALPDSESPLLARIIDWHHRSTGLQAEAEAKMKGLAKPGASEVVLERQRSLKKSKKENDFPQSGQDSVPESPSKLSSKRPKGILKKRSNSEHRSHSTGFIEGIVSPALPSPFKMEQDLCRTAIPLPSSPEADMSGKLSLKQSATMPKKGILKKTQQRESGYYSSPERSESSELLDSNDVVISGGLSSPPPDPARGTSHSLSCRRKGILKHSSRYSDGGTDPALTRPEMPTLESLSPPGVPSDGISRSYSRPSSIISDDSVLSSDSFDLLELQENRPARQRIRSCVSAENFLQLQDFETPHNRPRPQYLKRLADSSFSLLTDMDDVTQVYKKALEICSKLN

[4] = target: T4, HA-tagged NUAK1 (mouse) (UniProt Q641K5); assay: proximity ligation; Duolink In Situ PLA in U2OS cells expressing HA-tagged NUAK1 or empty vector, treated for 3 h with 50 uM GILK or control peptide (Figure 2D)
T4 sequence: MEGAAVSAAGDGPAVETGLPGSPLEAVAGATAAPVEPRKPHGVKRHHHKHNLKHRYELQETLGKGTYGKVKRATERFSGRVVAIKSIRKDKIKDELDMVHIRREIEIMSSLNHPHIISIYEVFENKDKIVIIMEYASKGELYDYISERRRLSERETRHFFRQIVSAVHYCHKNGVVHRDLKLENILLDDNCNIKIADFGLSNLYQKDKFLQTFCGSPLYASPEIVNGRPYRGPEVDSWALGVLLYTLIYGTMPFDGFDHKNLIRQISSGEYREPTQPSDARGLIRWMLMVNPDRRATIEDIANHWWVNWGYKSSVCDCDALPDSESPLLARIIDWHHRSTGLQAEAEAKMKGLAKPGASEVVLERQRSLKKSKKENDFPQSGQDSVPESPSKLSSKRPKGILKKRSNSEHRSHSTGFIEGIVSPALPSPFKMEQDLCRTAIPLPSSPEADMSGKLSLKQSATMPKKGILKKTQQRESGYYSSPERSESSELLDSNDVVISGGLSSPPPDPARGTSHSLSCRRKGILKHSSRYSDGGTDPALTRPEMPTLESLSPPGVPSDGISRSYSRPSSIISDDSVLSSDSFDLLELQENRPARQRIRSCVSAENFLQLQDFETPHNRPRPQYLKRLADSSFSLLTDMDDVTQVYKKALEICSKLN

[5] = target: protein phosphatase catalytic subunit beta (PPP1CB) (human (endogenous in U2OS)) (UniProt P62140); assay: proximity ligation; as a6: the GILK peptide added to the culture medium (50 uM, 3 h) displaces HA-NUAK1 from PPP1CB in cells; only the binder purified
[6] = target: SF3B1 (human (endogenous in U2OS)) (UniProt O75533); assay: proximity ligation; Duolink In Situ PLA in fixed U2OS cells (Figure 1I)
[7] = target: T4, HA-tagged NUAK1 (mouse); assay: proximity ligation; Duolink In Situ PLA in fixed U2OS cells expressing HA-tagged NUAK1 or empty vector (Figure 2B)
[8] = target: T4, HA-tagged NUAK1 (mouse); assay: co-IP; anti-HA immunoprecipitates of U2OS cells expressing HA-tagged NUAK1 or empty vector, HEGN buffer (140 mM KCl, 0.1% NP-40), immunoblot

Molecule: RRRRRRRRKRPKGILKKRS (stearyl on the N-terminus) [Stearyl-R8-… peptide]
binding [5]: binds

B1: PNUTS (PP1-nuclear targeting subunit) (protein, UniProt Q96QC0 1-940)
chain: MGSGPIDPKELLKGLDSFLNRDGEVKSVDGISKIFSLMKEARKMVSRCTYLNILLQTRSPEILVKFIDVGGYKLLNNWLTYSKTTNNIPLLQQILLTLQHLPLTVDHLKQNNTAKLVKQLSKSSEDEELRKLASVLVSDWMAVIRSQSSTQPAEKDKKKRKDEGKSRTTLPERPLTEVKAETRAEEAPEKKREKPKSLRTTAPSHAKFRSTGLELETPSLVPVKKNASTVVVSDKYNLKPIPLKRQSNVAAPGDATPPAEKKYKPLNTTPNATKEIKVKIIPPQPMEGLGFLDALNSAPVPGIKIKKKKKVLSPTAAKPSPFEGKTSTEPSTAKPSSPEPAPPSEAMDADRPGTPVPPVEVPELMDTASLEPGALDAKPVESPGDPNQLTRKGRKRKSVTWPEEGKLREYFYFELDETERVNVNKIKDFGEAAKREILSDRHAFETARRLSHDNMEEKVPWVCPRPLVLPSPLVTPGSNSQERYIQAEREKGILQELFLNKESPHEPDPEPYEPIPPKLIPLDEECSMDETPYVETLEPGGSGGSPDGAGGSKLPPVLANLMGSMGAGKGPQGPGGGGINVQEILTSIMGSPNSHPSEELLKQPDYSDKIKQMLVPHGLLGPGPIANGFPPGGPGGPKGMQHFPPGPGGPMPGPHGGPGGPVGPRLLGPPPPPRGGDPFWDGPGDPMRGGPMRGGPGPGPGPYHRGRGGRGGNEPPPPPPPFRGARGGRSGGGPPNGRGGPGGGMVGGGGHRPHEGPGGGMGNSSGHRPHEGPGGGMGSGHRPHEGPGGSMGGGGGHRPHEGPGGGISGGSGHRPHEGPGGGMGAGGGHRPHEGPGGSMGGSGGHRPHEGPGHGGPHGHRPHDVPGHRGHDHRGPPPHEHRGHDGPGHGGGGHRGHDGGHSHGGDMSNRPVCRHFMMKGNCRYENNCAFYHPGVNGPPLP
binding [6]: binds
binding [7]: binds
binding [8]: binds
binding [4]: binds

The remaining lines, values ahead:

binding [1]: binds
Molecule: SF3B1 (from UniProt O75533 1-1304)

binding [2]: binds
binding [3]: binds
binding [4]: binds
Molecule: protein phosphatase catalytic subunit beta (PPP1CB) (from UniProt P62140 1-327) (enzyme)
